Reference: patent US20210269836A1 (JOHN INNES CENTRE, published 2021)
These are yes or no findings as the source states them, for the method shown. Some results given as binding are weak or reduced against the parent protein; the word gives no strength. Tags and fused reporters may be left off the sequences shown.

Experiments:
[1] = target: T1, YFPC-DPAS (dehydroprecondylocarpine acetate synthase fused at its N-terminus to the C-terminal split YFP fragment) (Catharanthus roseus); assay: BiFC in C. roseus cells
T1 sequence: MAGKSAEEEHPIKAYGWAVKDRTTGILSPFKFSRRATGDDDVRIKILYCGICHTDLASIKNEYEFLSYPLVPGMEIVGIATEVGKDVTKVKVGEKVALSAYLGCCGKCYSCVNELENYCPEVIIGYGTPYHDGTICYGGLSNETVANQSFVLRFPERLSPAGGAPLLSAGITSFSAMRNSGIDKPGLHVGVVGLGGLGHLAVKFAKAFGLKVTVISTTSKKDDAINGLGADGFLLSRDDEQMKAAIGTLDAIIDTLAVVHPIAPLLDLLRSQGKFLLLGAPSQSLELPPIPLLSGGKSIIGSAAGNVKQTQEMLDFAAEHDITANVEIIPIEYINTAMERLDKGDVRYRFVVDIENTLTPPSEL

[2] = target: T1, YFPC-DPAS (dehydroprecondylocarpine acetate synthase fused at its N-terminus to the C-terminal split YFP fragment) (Catharanthus roseus); assay: BiFC in C. roseus cells, co-expression of DPAS-YFPN and YFPC-DPAS
[3] = target: T1, YFPC-DPAS (dehydroprecondylocarpine acetate synthase fused at its N-terminus to the C-terminal split YFP fragment) (Catharanthus roseus); assay: BiFC in C. roseus cells, co-expression of YFPN-DPAS and YFPC-DPAS

B1: TS-YFPN (Tabersonine Synthase fused at its C-terminus to the N-terminal split YFP fragment) (enzyme)
chain: MGSSDETIFDLPPYIKVFKDGRVERLHSSPYVPPSLNDPETGGVSWKDVPISSVVSARIYLPKINNHDEKLPIIVYFHGAGFCLESAFKSFFHTYVKHFVAEAKAIAVSVEFRLAPENHLPAAYEDCWEALQWVASHVGLDISSLKTCIDKDPWIINYADFDRLYLWGDSTGANIVHNTLIRSGKEKLNGGKVKILGAILYYPYFLIRTSSKQSDYMENEYRSYWKLAYPDAPGGNDNPMINPTAENAPDLAGYGCSRLLISMVADEARDITLLYIDALEKSGWKGELDVADFDKQYFELFEMETEVAKNMLRRLASFIK
notes: BiFC fusion expressed transiently inside C. roseus cells; also called TS-YN; not shown: N-terminal split YFP fragment (YFPN) from plasmid pSCA-SPYNE173
With B1 the binding [1] was “binds”.

B2: DPAS-YFPN (DPAS fused at its C-terminus to the N-terminal split YFP fragment) (enzyme, not shown: large carriers)
chain: MAGKSAEEEHPIKAYGWAVKDRTTGILSPFKFSRRATGDDDVRIKILYCGICHTDLASIKNEYEFLSYPLVPGMEIVGIATEVGKDVTKVKVGEKVALSAYLGCCGKCYSCVNELENYCPEVIIGYGTPYHDGTICYGGLSNETVANQSFVLRFPERLSPAGGAPLLSAGITSFSAMRNSGIDKPGLHVGVVGLGGLGHLAVKFAKAFGLKVTVISTTSKKDDAINGLGADGFLLSRDDEQMKAAIGTLDAIIDTLAVVHPIAPLLDLLRSQGKFLLLGAPSQSLELPPIPLLSGGKSIIGSAAGNVKQTQEMLDFAAEHDITANVEIIPIEYINTAMERLDKGDVRYRFVVDIENTLTPPSEL
With B2 the binding [2] was “binds”.

B3: YFPN-DPAS (DPAS fused at its N-terminus to the N-terminal split YFP fragment) (enzyme, not shown: large carriers)
chain: MAGKSAEEEHPIKAYGWAVKDRTTGILSPFKFSRRATGDDDVRIKILYCGICHTDLASIKNEYEFLSYPLVPGMEIVGIATEVGKDVTKVKVGEKVALSAYLGCCGKCYSCVNELENYCPEVIIGYGTPYHDGTICYGGLSNETVANQSFVLRFPERLSPAGGAPLLSAGITSFSAMRNSGIDKPGLHVGVVGLGGLGHLAVKFAKAFGLKVTVISTTSKKDDAINGLGADGFLLSRDDEQMKAAIGTLDAIIDTLAVVHPIAPLLDLLRSQGKFLLLGAPSQSLELPPIPLLSGGKSIIGSAAGNVKQTQEMLDFAAEHDITANVEIIPIEYINTAMERLDKGDVRYRFVVDIENTLTPPSEL
For B3, the binding [3] was “binds”.
